These are yes or no findings as the source states them, for the method shown. Binding seen in cells or lysates may run through a third protein. Some results given as binding are weak or reduced against the parent protein; the word gives no strength.
Target: TFII-I (endogenous, K562 nuclear extract) (human (endogenous in K562)) (UniProt P78347)
Assay: co-IP; K562 nuclear extracts treated with benzonase, 125 mM KCl in HENG buffer, pre-cleared with IgG beads, antibody cross-linked to protein G magnetic beads, overnight at 4°C; washes with HENG plus 300 mM KCl; western blot; IP with TFII-I antibodies and reverse IP with antibodies against the partners

By UniProt entry, the sequences of proteins in these tests, tags left out.
UniProt P78347: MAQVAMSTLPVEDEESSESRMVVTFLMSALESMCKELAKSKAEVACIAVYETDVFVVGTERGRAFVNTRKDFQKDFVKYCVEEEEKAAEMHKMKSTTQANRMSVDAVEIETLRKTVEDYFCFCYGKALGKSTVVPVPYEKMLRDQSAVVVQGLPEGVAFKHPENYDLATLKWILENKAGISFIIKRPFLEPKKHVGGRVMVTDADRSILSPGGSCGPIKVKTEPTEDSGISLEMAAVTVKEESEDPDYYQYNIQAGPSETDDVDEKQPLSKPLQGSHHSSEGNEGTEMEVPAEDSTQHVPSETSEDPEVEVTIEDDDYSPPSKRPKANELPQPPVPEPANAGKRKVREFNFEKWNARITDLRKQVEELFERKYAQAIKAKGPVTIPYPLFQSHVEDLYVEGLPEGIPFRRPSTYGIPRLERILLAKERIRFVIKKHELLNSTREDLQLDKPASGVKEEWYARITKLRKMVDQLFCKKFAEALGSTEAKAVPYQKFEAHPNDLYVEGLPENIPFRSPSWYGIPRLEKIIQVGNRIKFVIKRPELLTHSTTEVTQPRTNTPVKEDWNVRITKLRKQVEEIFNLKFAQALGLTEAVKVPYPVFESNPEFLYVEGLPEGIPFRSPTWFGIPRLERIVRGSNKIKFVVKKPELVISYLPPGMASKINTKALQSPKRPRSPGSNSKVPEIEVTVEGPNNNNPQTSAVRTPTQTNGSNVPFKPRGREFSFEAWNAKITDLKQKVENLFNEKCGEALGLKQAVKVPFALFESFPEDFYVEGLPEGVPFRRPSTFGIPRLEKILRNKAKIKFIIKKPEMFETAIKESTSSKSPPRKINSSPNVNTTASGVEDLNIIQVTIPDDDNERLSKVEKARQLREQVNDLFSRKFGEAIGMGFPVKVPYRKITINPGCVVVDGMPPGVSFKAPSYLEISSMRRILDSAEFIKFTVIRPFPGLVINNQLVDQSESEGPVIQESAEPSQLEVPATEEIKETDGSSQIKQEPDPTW

binding: binds
B1: transcription elongation factor Elongin A (protein, UniProt Q14241 1-772)
chain: MAAESALQVVEKLQARLAANPDPKKLLKYLKKLSTLPITVDILAETGVGKTVNSLRKHEHVGSFARDLVAQWKKLVPVERNAEPDEQDFEKSNSRKRPRDALQKEEEMEGDYQETWKATGSRSYSPDHRQKKHRKLSELERPHKVSHGHERRDERKRCHRMSPTYSSDPESSDYGHVQSPPSCTSPHQMYVDHYRSLEEDQEPIVSHQKPGKGHSNAFQDRLGASQERHLGEPHGKGVVSQNKEHKSSHKDKRPVDAKSDEKASVVSREKSHKALSKEENRRPPSGDNAREKPPSSGVKKEKDREGSSLKKKCLPPSEAASDNHLKKPKHRDPEKAKLDKSKQGLDSFDTGKGAGDLLPKVKEKGSNNLKTPEGKVKTNLDRKSLGSLPKVEETDMEDEFEQPTMSFESYLSYDQPRKKKKKIVKTSATALGDKGLKKNDSKSTGKNLDSVQKLPKVNKTKSEKPAGADLAKLRKVPDVLPVLPDLPLPAIQANYRPLPSLELISSFQPKRKAFSSPQEEEEAGFTGRRMNSKMQVYSGSKCAYLPKMMTLHQQCIRVLKNNIDSIFEVGGVPYSVLEPVLERCTPDQLYRIEEYNHVLIEETDQLWKVHCHRDFKEERPEEYESWREMYLRLQDAREQRLRVLTKNIQFAHANKPKGRQAKMAFVNSVAKPPRDVRRRQEKFGTGGAAVPEKIKIKPAPYPMGSSHASASSISFNPSPEEPAYDGPSTSSAHLAPVVSSTVSYDPRKPTVKKIAPMMAKTIKAFKNRFSRR

— publication PMC4081084
